Values from PubChem BioAssay AID686938 (Drosophila RNAi Screening Center, 2013)
The screen tested about 23,000 reagents; shown is a random part of those with a known target gene and a result. Over the whole deposit, 75 (0.33%) got an active call. 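Raw plate signals without normalisation; calls rest on plate z-scores that were not deposited; ratio present for only 364 wells.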 Reagents against one gene are numbered here. Names joined by + are all predicted targets of the reagent. Not given: the dose of the treatment.

Assay: 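Looking for CRAC channel components and the factors controlling them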 (primary screen)
Cells: Drosophila S2R+ cells
Knock-down reagent: long dsRNA against Drosophila genes, about 0.25 µg dsRNA per well, roughly 10,000 cells
Time to read-out: 5 days of knock-down before the calcium assay
Challenge: thapsigargin (SERCA pump blocker) to empty calcium stores; entry signal taken 4 min after adding it
Measured: 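Per-well fluo-4 fluorescence in two replicates, unnormalised, measured in resting cells and 4 min after store depletion by the SERCA blocker thapsigargin; ratio of the two present in few wells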
Direction: calcium entry signal: higher = stronger calcium signal after store depletion; entry to resting ratio: higher = more calcium entry relative to resting level; resting calcium signal: higher = higher resting calcium signal
Rule for the call: 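Called when the plate z-score of the entry-to-rest ratio, mean of duplicates, falls below −3; wells with low overall dye signal (Fmax z below −2) or more than five off-targets excluded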
Calls: active = strongly reduced calcium entry; inactive = no strong reduction

| Target gene | dsRNA no. | calcium entry signal, replicate 1 (fluorescence units) | calcium entry signal, replicate 2 (fluorescence units) | entry to resting ratio | resting calcium signal, replicate 1 (fluorescence units) | resting calcium signal, replicate 2 (fluorescence units) | outcome |
| --- | --- | --- | --- | --- | --- | --- | --- |
| comm | 1 | 3.72e7 | 5.13e7 | – | 1.54e7 | 1.84e7 | inactive |
| gkt | 1 | 2.57e7 | 2.45e7 | – | 1.27e7 | 1.21e7 | inactive |
| Acer | 1 | 5.00e7 | – | – | 2.25e7 | – | inactive |
| IFT20 + CG10395 | 1 | 3.77e7 | 4.27e7 | – | 1.97e7 | 1.78e7 | inactive |
| spdi | 1 | 3.65e7 | 4.44e7 | – | 1.67e7 | 1.91e7 | inactive |
| spdi | 2 | 3.21e7 | 4.73e7 | 2 | 1.60e7 | 2.02e7 | inactive |
| CG2681 | 1 | 3.73e7 | 4.47e7 | – | 1.84e7 | 1.99e7 | inactive |
| CG2875 | 1 | 3.42e7 | 3.03e7 | – | 1.80e7 | 1.66e7 | inactive |
| Hat1 | 1 | 4.61e7 | 3.21e7 | – | 2.04e7 | 1.61e7 | inactive |
| CG14609 | 1 | 4.86e7 | 3.46e7 | – | 2.39e7 | 1.56e7 | inactive |
| CstF50 | 1 | 2.55e7 | 3.25e7 | – | 1.17e7 | 1.54e7 | inactive |
| Sr-CIII | 1 | 2.98e7 | 3.33e7 | – | 1.52e7 | 1.61e7 | inactive |
| CG14717 | 1 | 4.43e7 | 3.96e7 | – | 2.18e7 | 2.09e7 | inactive |
| CG31467 | 1 | 3.39e7 | 3.48e7 | – | 1.75e7 | 1.88e7 | inactive |
| CG5973 | 1 | 4.34e7 | – | – | 2.16e7 | – | inactive |
| CG13272 | 1 | 4.08e7 | 2.49e7 | – | 1.90e7 | 1.35e7 | inactive |
| CG13272 | 2 | 3.61e7 | 3.75e7 | – | 2.20e7 | 1.81e7 | inactive |
| CG15337 | 1 | 3.15e7 | 4.42e7 | – | 1.51e7 | 2.01e7 | inactive |
| CG15337 | 2 | 4.45e7 | 4.27e7 | – | 2.64e7 | 2.00e7 | inactive |
| Kif19A | 1 | 2.23e7 | 2.56e7 | – | 1.24e7 | 1.38e7 | inactive |
| Nepl17 | 1 | 3.98e7 | 6.22e7 | – | 2.05e7 | 2.69e7 | inactive |
| CG5382 | 1 | 4.19e7 | 3.29e7 | – | 2.06e7 | 1.53e7 | inactive |
| Sox14 | 1 | 3.85e7 | 4.85e7 | – | 1.98e7 | 2.16e7 | inactive |
| SCAR | 1 | 2.99e7 | 4.13e7 | – | 1.60e7 | 1.68e7 | inactive |
| Osi21 | 1 | 3.20e7 | 4.59e7 | – | 1.61e7 | 1.88e7 | inactive |
| melt | 1 | 2.04e7 | 3.88e7 | – | 1.08e7 | 1.77e7 | inactive |
| CG9951 | 1 | 2.19e7 | 2.93e7 | – | 1.05e7 | 2.28e7 | inactive |
| CG12990 | 1 | 2.72e7 | 3.33e7 | – | 1.43e7 | 1.40e7 | inactive |
| CG7382 | 1 | 3.49e7 | – | – | 1.95e7 | – | inactive |
| l(3)neo38 | 1 | 3.26e7 | 4.24e7 | – | 1.75e7 | 1.98e7 | inactive |
| l(3)neo38 | 2 | 3.28e7 | 3.52e7 | – | 1.71e7 | 1.77e7 | inactive |
| l(3)neo38 | 3 | 2.98e7 | 3.41e7 | – | 1.52e7 | 1.43e7 | inactive |
| RpS6 | 1 | 9.91e6 | 1.27e7 | – | 7.58e6 | 8.17e6 | inactive |
| CG7632 | 1 | 2.18e7 | 3.26e7 | – | 1.05e7 | 1.47e7 | inactive |
| Top1 | 1 | 1.92e7 | 2.58e7 | – | 1.09e7 | 1.13e7 | inactive |
| CAH8 | 1 | 3.66e7 | 4.21e7 | – | 5.54e7 | 2.12e7 | inactive |
| ais | 1 | 3.61e7 | 4.17e7 | – | 1.77e7 | 3.12e7 | inactive |
| l(3)72Dp | 1 | 4.44e7 | 6.05e7 | – | 2.24e7 | 2.60e7 | inactive |
| lncRNA:CR9284 | 1 | 1.92e7 | 3.74e7 | – | 9.85e6 | 1.44e7 | inactive |
| lncRNA:CR9284 | 2 | 3.77e7 | – | – | 1.95e7 | – | inactive |

As entered above:
Entry for CG12990 in “resting calcium signal, replicate 2 (fluorescence units)”: 1.40e7
CG5973, resting calcium signal, replicate 1 (fluorescence units) → 2.16e7
For “calcium entry signal, replicate 1 (fluorescence units)”, CG31467 has 3.39e7
